Source: PubChem BioAssay AID1159592 (NIAID, 2016)

- Purpose: 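Which core TLR components make p65 move nuclear in R848-treated mouse macrophages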
- System: RAW264.7 macrophages from mouse bearing reporters for p65 (GFP) and the Tnf promoter (mCherry)
- Reagents: single siRNA against mouse genes
- Duration: 48 to 72 hours after siRNA transfection
- Treatment: R848 TLR ligand for 40 minutes before fixation; dose not given
- Measured: 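Replicate mean of robust z-score relative to negative-control wells, after median/MAD scaling by plate, for the imaged GFP-p65 nuclear-to-cytoplasmic ratio 40 minutes after R848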
- Direction: NF-kB translocation z-score: higher = more p65 moved into the nucleus than in negative-control wells
- Active means: 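Active when the replicate-mean z lies above 1.5 or below -1.5; the depositor also grades absolute z in steps of 1, 1.5, 2 and 2.5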
- Calls: active = strong change, either direction; inactive = little change
This is one part, drawn at random, of 756 reagents. 147 of all reagents (19%) count as active. 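Active covers both loss and gain of p65 entry; negative z means weaker NF-kB activation, positive means more nuclear p65.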 Reagents against one gene are numbered here. Not stated in the record: the amount of reagent.

gene	siRNA no.	NF-kB translocation z-score, replicate mean	Outcome
Map2k3	1	0.244	inactive
Map2k3	2	-0.271	inactive
Map2k3	3	-0.0659	inactive
Map2k3	4	-1.11	inactive
Map2k3	5	0.595	inactive
Map2k3	6	-0.165	inactive
Tlr2	1	-0.323	inactive
Tlr2	2	-1	inactive
Tlr2	3	1.11	inactive
Tlr2	4	0.8	inactive
Tlr2	5	-0.698	inactive
Tlr2	6	0.998	inactive
Tab1	1	-0.677	inactive
Tab1	2	-1.18	inactive
Tab1	3	-1.43	inactive
Tab1	4	-1.39	inactive
Tab1	5	-0.115	inactive
Tab1	6	-1.82	active
Ticam2	1	-1.7	active
Ticam2	2	0.762	inactive
Ticam2	3	-0.0751	inactive
Ticam2	4	0.00492	inactive
Ticam2	5	-0.146	inactive
Ticam2	6	-0.963	inactive
Cxcl11	1	-0.701	inactive
Cxcl11	2	1.15	inactive
Cxcl11	3	-0.306	inactive
Cxcl11	4	-0.115	inactive
Cxcl11	5	-2.5	active
Cxcl11	6	-1.18	inactive
Arf6	1	-0.334	inactive
Arf6	2	-0.705	inactive
Arf6	3	-1.07	inactive
Arf6	4	-0.651	inactive
Arf6	5	1.32	inactive
Arf6	6	0.254	inactive
Rela	1	-1.53	active
Rela	2	-1.34	inactive
Rela	3	-0.261	inactive
Rela	4	-1.89	active
Rela	5	-3.26	active
Rela	6	-2.46	active
Mapk11	1	0.54	inactive
Mapk11	2	-0.539	inactive
Mapk11	3	1.66	active
Mapk11	4	-0.863	inactive
Mapk11	5	-0.0159	inactive
Mapk11	6	0.809	inactive
Nfkbia	1	-1.68	active
Nfkbia	2	-3.39	active
Nfkbia	3	-0.874	inactive
Nfkbia	4	-2.05	active
Nfkbia	5	-1.22	inactive
Nfkbia	6	-0.045	inactive
Nfkb1	1	1.15	inactive
Nfkb1	2	-0.168	inactive
Nfkb1	3	0.178	inactive
Nfkb1	4	0.888	inactive
Nfkb1	5	-0.156	inactive
Nfkb1	6	0.621	inactive
Irak4	1	-0.129	inactive
Irak4	2	-3.77	active
Irak4	3	-2.67	active
Irak4	4	-1.91	active
Irak4	5	-1.18	inactive
Irak4	6	-0.0506	inactive

In a second layout: results already given.
Arf6 #3 — NF-kB translocation z-score, replicate mean: -1.07; Outcome: inactive
Arf6 #4 — NF-kB translocation z-score, replicate mean: -0.651; Outcome: inactive
Arf6 #5 — NF-kB translocation z-score, replicate mean: 1.32; Outcome: inactive
Arf6 #6 — NF-kB translocation z-score, replicate mean: 0.254; Outcome: inactive
Rela #1 — NF-kB translocation z-score, replicate mean: -1.53; Outcome: active
Rela #2 — NF-kB translocation z-score, replicate mean: -1.34; Outcome: inactive
Rela #3 — NF-kB translocation z-score, replicate mean: -0.261; Outcome: inactive
Rela #4 — NF-kB translocation z-score, replicate mean: -1.89; Outcome: active
Rela #5 — NF-kB translocation z-score, replicate mean: -3.26; Outcome: active
Rela #6 — NF-kB translocation z-score, replicate mean: -2.46; Outcome: active
Mapk11 #1 — NF-kB translocation z-score, replicate mean: 0.54; Outcome: inactive

More entries:
gene	siRNA no.	NF-kB translocation z-score, replicate mean	Outcome
Tlr4	1	0.0437	inactive
Tlr4	2	0.704	inactive
Tlr4	3	-0.528	inactive
Tlr4	4	0.331	inactive
Tlr4	5	0.203	inactive
Tlr4	6	0.933	inactive
Sp1	1	-0.449	inactive
Sp1	2	0.96	inactive
Sp1	3	-1.44	inactive
Sp1	4	0.00132	inactive
Sp1	5	-1.24	inactive
Sp1	6	-1.13	inactive
Btk	1	-0.474	inactive
Btk	2	0.878	inactive
Btk	3	-1.82	active
Btk	4	-1.75	active
Btk	5	-2.17	active
Btk	6	-1.34	inactive
Peli1	1	-0.528	inactive
Peli1	2	-0.555	inactive
Peli1	3	-0.798	inactive
Peli1	4	2.03	active
Peli1	5	-0.808	inactive
Peli1	6	-0.799	inactive
Relb	1	-0.636	inactive
Relb	2	-0.218	inactive
Relb	3	-0.46	inactive
Relb	4	0.209	inactive
Relb	5	-0.502	inactive
Relb	6	0.435	inactive
Ube2v1	1	1.23	inactive
Ube2v1	2	-1.05	inactive
Ube2v1	3	-0.399	inactive
Ube2v1	4	0.466	inactive
Ube2v1	5	0.73	inactive
Ube2v1	6	-1.35	inactive
Tradd	1	-0.392	inactive
Tradd	2	-0.29	inactive
Tradd	3	-1.55	active
Tradd	4	-1.14	inactive
Tradd	5	-0.207	inactive
Tradd	6	1.44	inactive
Lbp	1	-0.127	inactive
Lbp	2	-1.32	inactive
Lbp	3	0.989	inactive
Lbp	4	-1.44	inactive
Lbp	5	0.274	inactive
Lbp	6	0.402	inactive
